PMC2567031
These are yes or no findings as the source states them, for the method shown. Binding seen in cells or lysates may run through a third protein. A result given as binding can be weak or reduced; the word gives no strength.

Sequences of proteins named here, by UniProt entry; tags and fusion partners are left off. A change or cut given only in a name is not applied to a line headed by its entry. Residues count along the entry.
UniProt P56480, residues 47-529: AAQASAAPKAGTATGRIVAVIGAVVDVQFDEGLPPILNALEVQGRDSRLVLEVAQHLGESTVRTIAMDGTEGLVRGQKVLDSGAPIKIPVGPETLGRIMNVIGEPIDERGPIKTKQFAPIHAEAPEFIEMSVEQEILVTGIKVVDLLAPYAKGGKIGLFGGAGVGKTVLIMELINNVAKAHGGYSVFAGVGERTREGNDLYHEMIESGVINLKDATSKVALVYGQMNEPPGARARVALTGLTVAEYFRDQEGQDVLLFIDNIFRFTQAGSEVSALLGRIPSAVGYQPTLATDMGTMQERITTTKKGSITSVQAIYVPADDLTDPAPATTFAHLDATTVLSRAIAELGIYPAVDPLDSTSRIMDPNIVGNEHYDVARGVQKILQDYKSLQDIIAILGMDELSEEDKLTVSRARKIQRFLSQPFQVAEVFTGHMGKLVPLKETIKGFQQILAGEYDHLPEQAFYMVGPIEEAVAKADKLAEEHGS
UniProt P00441: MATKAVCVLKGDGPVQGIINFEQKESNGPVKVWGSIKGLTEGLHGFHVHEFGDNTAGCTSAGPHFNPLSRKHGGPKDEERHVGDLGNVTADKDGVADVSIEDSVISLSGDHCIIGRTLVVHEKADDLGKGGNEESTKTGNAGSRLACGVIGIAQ

Target: ATP synthase β subunit (mouse (endogenous in mouse spinal cord)) (UniProt P56480)
Assay: co-IP; mouse spinal cord extracts; precipitation with antibodies to ATP1A, Hsp/Hsc70 or ATP5B on protein A/G plus-agarose; blots for hSOD1 or uSOD1

## SOD1^Leu126delTT with a FLAG sequence at C terminal (DF mutant SOD1) (from UniProt P00441)
  binding: binds
